Conditions: pH 7.4
Protocol: The mobile phase consisted, in all cases, of 20 mM MOPS buffer at pH 7.4, and methanol in varying proportions from 70 to 15% v/v. […] The capacity factors data (k′=(tR−t0)/t0) obtained at various amounts of methanol were then extrapolated to 0% methanol and reported as log k′w, using a linear procedure. […] Injections of pure methanol were used to determine t0, i.e. the dead time, while tR has the usual meaning of the retention time for the analyte.
All the chromatographic runs were performed on a HP-1100 HPLC ChemStation at the ambient temperature. The columns used were Supelcosil LC-ABZ, 5μm, 4.6×50 mm. […] Columns having different silica bond lots were tested to ensure reproducibility. Samples were dissolved in 1:1 methanol/water at a concentration of 10-30 μg/mL. The flow rate was 0.5, 1 or 2 mL/min, depending on the lipophilicity range. Three lipophilicity ranges were established using, in all cases, three points for the extrapolation to k′w, as described in the table below.
The samples were placed in the appropriate range by estimating their lipophilicity via computed values, or by prior experience with a given class. In each case the entire group of samples was run before the column is equilibrated to the next condition, in an automated fashion, and the initial estimation need not be very accurate. […]

Structure (SMILES): CN1C(=O)CN=C(c2ccccc2)c2cc(Cl)ccc21 [Diazepam]
- log k′2 (capacity factor extrapolated to 0% methanol): 2.63

Reference: patent US6548307B2, “Determination of logP coefficients via a RP-HPLC column” (Pfizer Inc., priority 2000, dated 2003)
